These are yes or no findings as the source states them, for the method shown. In cells and extracts the contact can be indirect. Here binding means that the protein was enriched with, or labelled near, the bait; the list need not be complete.
Assays:
G3BP1-GFP = G3BP1-GFP (UniProt Q13283); assay: affinity purification with mass spectrometry
FUS(R522G)-GFP (human) = FUS(R522G)-GFP (human) (UniProt P35637); assay: affinity purification with mass spectrometry

By UniProt entry, the sequences of proteins in these tests, tags left out. Where a name states a change or a piece, a line headed by the entry shows the natural chain unless it says otherwise.
UniProt Q13283: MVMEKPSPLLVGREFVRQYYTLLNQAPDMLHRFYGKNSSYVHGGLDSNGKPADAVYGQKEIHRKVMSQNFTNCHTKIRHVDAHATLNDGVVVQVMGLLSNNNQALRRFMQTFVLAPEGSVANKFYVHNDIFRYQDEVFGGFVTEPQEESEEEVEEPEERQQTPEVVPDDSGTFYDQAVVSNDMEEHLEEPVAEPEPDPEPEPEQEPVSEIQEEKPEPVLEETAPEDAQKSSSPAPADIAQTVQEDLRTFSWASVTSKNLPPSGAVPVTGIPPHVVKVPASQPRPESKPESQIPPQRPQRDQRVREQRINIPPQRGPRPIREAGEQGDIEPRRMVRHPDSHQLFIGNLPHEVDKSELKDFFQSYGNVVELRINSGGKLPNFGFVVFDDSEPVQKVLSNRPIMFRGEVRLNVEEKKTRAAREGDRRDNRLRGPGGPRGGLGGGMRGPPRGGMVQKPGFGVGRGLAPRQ
UniProt P35637: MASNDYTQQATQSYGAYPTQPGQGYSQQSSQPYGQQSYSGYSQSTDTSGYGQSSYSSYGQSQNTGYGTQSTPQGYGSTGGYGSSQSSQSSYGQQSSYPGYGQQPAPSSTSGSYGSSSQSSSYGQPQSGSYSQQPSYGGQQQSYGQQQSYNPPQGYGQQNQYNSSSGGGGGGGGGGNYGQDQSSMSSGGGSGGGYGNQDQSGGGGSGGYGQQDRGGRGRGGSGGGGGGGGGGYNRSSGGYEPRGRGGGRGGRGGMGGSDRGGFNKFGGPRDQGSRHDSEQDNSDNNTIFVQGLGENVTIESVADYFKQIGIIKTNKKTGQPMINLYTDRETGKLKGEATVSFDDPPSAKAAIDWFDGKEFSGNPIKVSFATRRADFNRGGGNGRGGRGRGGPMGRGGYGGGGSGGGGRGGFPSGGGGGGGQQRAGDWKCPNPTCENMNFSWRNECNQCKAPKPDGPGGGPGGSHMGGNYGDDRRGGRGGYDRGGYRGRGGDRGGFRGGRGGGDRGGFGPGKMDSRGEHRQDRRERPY

Row | Binder | binding (G3BP1-GFP) | binding (FUS(R522G)-GFP (human))
1 | NUP160 (protein, UniProt Q12769 1-1436) MLHLSAAPPAPPPEVTATARPCLCSVGRRGDGGKMAAAGALERSFVELSGAERERPRHFREFTVCSIGTANAVAGAVKYSESAGGFYYVESGKLFSVTRNRFIHWKTSGDTLELMEESLDINLLNNAIRLKFQNCSVLPGGVYVSETQNRVIILMLTNQTVHRLLLPHPSRMYRSELVVDSQMQSIFTDIGKVDFTDPCNYQLIPAVPGISPNSTASTAWLSSDGEALFALPCASGGIFVLKLPPYDIPGMVSVVELKQSSVMQRLLTGWMPTAIRGDQSPSDRPLSLAVHCVEHDAFIFALCQDHKLRMWSYKEQMCLMVADMLEYVPVKKDLRLTAGTGHKLRLAYSPTMGLYLGIYMHAPKRGQFCIFQLVSTESNRYSLDHISSLFTSQETLIDFALTSTDIWALWHDAENQTVVKYINFEHNVAGQWNPVFMQPLPEEEIVIRDDQDPREMYLQSLFTPGQFTNEALCKALQIFCRGTERNLDLSWSELKKEVTLAVENELQGSVTEYEFSQEEFRNLQQEFWCKFYACCLQYQEALSHPLALHLNPHTNMVCLLKKGYLSFLIPSSLVDHLYLLPYENLLTEDETTISDDVDIARDVICLIKCLRLIEESVTVDMSVIMEMSCYNLQSPEKAAEQILEDMITIDVENVMEDICSKLQEIRNPIHAIGLLIREMDYETEVEMEKGFNPAQPLNIRMNLTQLYGSNTAGYIVCRGVHKIASTRFLICRDLLILQQLLMRLGDAVIWGTGQLFQAQQDLLHRTAPLLLSYYLIKWGSECLATDVPLDTLESNLQHLSVLELTDSGALMANRFVSSPQTIVELFFQEVARKHIISHLFSQPKAPLSQTGLNWPEMITAITSYLLQLLWPSNPGCLFLECLMGNCQYVQLQDYIQLLHPWCQVNVGSCRFMLGRCYLVTGEGQKALECFCQAASEVGKEEFLDRLIRSEDGEIVSTPRLQYYDKVLRLLDVIGLPELVIQLATSAITEAGDDWKSQATLRTCIFKHHLDLGHNSQAYEALTQIPDSSRQLDCLRQLVVVLCERSQLQDLVEFPYVNLHNEVVGIIESRARAVDLMTHNYYELLYAFHIYRHNYRKAGTVMFEYGMRLGREVRTLRGLEKQGNCYLAALNCLRLIRPEYAWIVQPVSGAVYDRPGASPKRNHDGECTAAPTNRQIEILELEDLEKECSLARIRLTLAQHDPSAVAVAGSSSAEEMVTLLVQAGLFDTAISLCQTFKLPLTPVFEGLAFKCIKLQFGGEAAQAEAWAWLAANQLSSVITTKESSATDEAWRLLSTYLERYKVQNNLYHHCVINKLLSHGVPLPNWLINSYKKVDAAELLRLYLNYDLLEEAVDLVSEYVDAVLGKGHQYFGIEFPLSATAPMVWLPYSSIDQLLQALGENSANSHNIALSQKILDKLEDYQQKVDKATRDLLYRRTL | binds | –
2 | UPF1 (protein, UniProt Q92900 1-1129) MSVEAYGPSSQTLTFLDTEEAELLGADTQGSEFEFTDFTLPSQTQTPPGGPGGPGGGGAGGPGGAGAGAAAGQLDAQVGPEGILQNGAVDDSVAKTSQLLAELNFEEDEEDTYYTKDLPIHACSYCGIHDPACVVYCNTSKKWFCNGRGNTSGSHIVNHLVRAKCKEVTLHKDGPLGETVLECYNCGCRNVFLLGFIPAKADSVVVLLCRQPCASQSSLKDINWDSSQWQPLIQDRCFLSWLVKIPSEQEQLRARQITAQQINKLEELWKENPSATLEDLEKPGVDEEPQHVLLRYEDAYQYQNIFGPLVKLEADYDKKLKESQTQDNITVRWDLGLNKKRIAYFTLPKTDSGNEDLVIIWLRDMRLMQGDEICLRYKGDLAPLWKGIGHVIKVPDNYGDEIAIELRSSVGAPVEVTHNFQVDFVWKSTSFDRMQSALKTFAVDETSVSGYIYHKLLGHEVEDVIIKCQLPKRFTAQGLPDLNHSQVYAVKTVLQRPLSLIQGPPGTGKTVTSATIVYHLARQGNGPVLVCAPSNIAVDQLTEKIHQTGLKVVRLCAKSREAIDSPVSFLALHNQIRNMDSMPELQKLQQLKDETGELSSADEKRYRALKRTAERELLMNADVICCTCVGAGDPRLAKMQFRSILIDESTQATEPECMVPVVLGAKQLILVGDHCQLGPVVMCKKAAKAGLSQSLFERLVVLGIRPIRLQVQYRMHPALSAFPSNIFYEGSLQNGVTAADRVKKGFDFQWPQPDKPMFFYVTQGQEEIASSGTSYLNRTEAANVEKITTKLLKAGAKPDQIGIITPYEGQRSYLVQYMQFSGSLHTKLYQEVEIASVDAFQGREKDFIILSCVRANEHQGIGFLNDPRRLNVALTRARYGVIIVGNPKALSKQPLWNHLLNYYKEQKVLVEGPLNNLRESLMQFSKPRKLVNTINPGARFMTTAMYDAREAIIPGSVYDRSSQGRPSSMYFQTHDQIGMISAGPSHVAAMNIPIPFNLVMPPMPPPGYFGQANGPAAGRGTPKGKTGRGGRQKNRFGLPGPSQTNLPNSQASQDVASQPFSQGALTQGYISMSQPSQMSQPGLSQPELSQDSYLGDEFKSQIDVALSQDSTYQGERAYQHGGVTGLSQY | binds | binds

Source: paper doi:10.1101/2021.03.02.433611
